According to US20220308056A1:
These are yes or no findings as the source states them, for the method shown. Some entries that bind do so weakly or less than the wild type.

The chains behind the UniProt entries cited, without tags or fusion partners. Where a name states a change or a piece, a line headed by the entry shows the natural chain unless it says otherwise.
UniProt O00187: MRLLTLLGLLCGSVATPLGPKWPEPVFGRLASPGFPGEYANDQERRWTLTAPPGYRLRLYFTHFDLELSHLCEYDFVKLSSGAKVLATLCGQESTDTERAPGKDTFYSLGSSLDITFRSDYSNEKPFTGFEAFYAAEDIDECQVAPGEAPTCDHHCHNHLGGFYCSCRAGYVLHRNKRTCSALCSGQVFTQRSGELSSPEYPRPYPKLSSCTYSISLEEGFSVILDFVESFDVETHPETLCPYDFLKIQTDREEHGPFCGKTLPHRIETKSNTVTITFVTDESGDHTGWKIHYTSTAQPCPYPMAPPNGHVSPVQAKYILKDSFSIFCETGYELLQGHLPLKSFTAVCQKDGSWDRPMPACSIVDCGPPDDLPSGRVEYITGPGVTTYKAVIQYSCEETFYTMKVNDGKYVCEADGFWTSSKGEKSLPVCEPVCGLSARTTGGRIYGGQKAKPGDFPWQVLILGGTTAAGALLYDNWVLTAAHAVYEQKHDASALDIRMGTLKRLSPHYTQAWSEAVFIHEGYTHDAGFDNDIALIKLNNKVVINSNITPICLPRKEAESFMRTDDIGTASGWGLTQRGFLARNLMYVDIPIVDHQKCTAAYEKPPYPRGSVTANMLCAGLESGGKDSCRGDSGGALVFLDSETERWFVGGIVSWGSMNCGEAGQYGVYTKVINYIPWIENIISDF

Target: T1, C1 esterase inhibitor (Sigma E0518, from human plasma), MW 105,000 (human) (UniProt P05155)
T1 sequence: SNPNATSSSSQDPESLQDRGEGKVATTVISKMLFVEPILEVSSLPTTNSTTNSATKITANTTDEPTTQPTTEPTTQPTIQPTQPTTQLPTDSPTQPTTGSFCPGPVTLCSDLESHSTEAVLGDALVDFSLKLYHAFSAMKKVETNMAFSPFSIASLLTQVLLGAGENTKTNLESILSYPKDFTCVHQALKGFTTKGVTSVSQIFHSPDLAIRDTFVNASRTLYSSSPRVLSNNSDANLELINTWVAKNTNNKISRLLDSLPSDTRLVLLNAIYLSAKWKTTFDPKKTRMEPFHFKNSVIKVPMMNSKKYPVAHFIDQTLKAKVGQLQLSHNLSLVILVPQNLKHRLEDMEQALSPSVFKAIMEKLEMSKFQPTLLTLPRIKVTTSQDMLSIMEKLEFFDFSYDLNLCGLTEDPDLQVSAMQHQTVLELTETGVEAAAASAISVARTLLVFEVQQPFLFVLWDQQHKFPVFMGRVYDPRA
Assay: mixing at molar ratio 1:1.5, 60 min 37° C, size exclusion chromatography and non-reducing gel

binding: binds
Substance: human MASP-2 CCP1/CCP2/SP6His (MW 43,740) (from UniProt O00187 298-686) (enzyme)
